Experimental findings from patent US9833405B2, “Biodegradable microdepot delivery system for topical delivery” (Nano and Advanced Materials Institute Limited, priority 2014, dated 2017) are described below.

The test system of the series is HaCaT cells. The experiment in a line: Cell viability assay (MTT) for in vitro skin irritation of active ingredients. The series is classed as cell-based, human. As to the method:
HaCaT cells, a human keratinocyte cell line, are used as the in vitro model to test any irritation effect of the active ingredients used in the polymeric solution to form the microdepot delivery system of the present invention. The following is the procedures of an MTT assay for testing any skin irritation effect of the active ingredients used in the polymeric solution of the present invention: • a) 12 mM MTT stock solution is prepared by adding 1 mL of sterile PBS into one 5 mg vial of MTT (Component A) and mixed by sonication until the vial of MTT is dissolved in the PBS; • b) HaCaT cells at 5,000 cells per well are seed into a 96-well plate and incubated at 37° C. in 5% CO2 for 24 to 48 hours until the cells become adherent; • c) Culture medium in each well is removed and replaced with 100 μL of test compound (e.g., active ingredient used in the polymeric solution of the present invention); • d) 10 μL of the MTT stock solution prepared in step (a) is added to each well; a negative control containing 100 μL of culture medium and 10 μL of the MTT stock solution is also included for comparison; • e) Both test samples and negative control prepared in step (d) are incubated at 37° C. for 4 hours; • f) 25 μL of the solution is removed from each well after incubation in step (e) followed by adding 50 μL of DMSO to each well and mix thoroughly by pipette; • g) The mixture in step (f) is incubated at 37° C. for 10 minutes; • h) The mixture in each well after the incubation in step (g) is mixed again before measuring absorbance at 540 nm; • i) The mixture is subject to a spectrophotometer to measure the absorbance at 540 nm.
The cell viability of HaCaT cells with the treatment of the test compound is calculated based on the following formula:
[formula] where ^OD(1) is the absorbance of culture medium only; ^OD(2) is the absorbance of the culture medium with the cells; ^OD(3) is the absorbance of the culture medium with the test compound; and ^OD(4) is the absorbance of the culture medium with the cells and test compound.

For GHK-Cu, the OD560 (test compound 0.2%) is recorded as 1.66; the OD560 (test compound 0.5%) is given as 1.718; the OD560 (test compound 1%) stood at 1.775; the OD560 (test compound 2%) was determined as 1.629; the OD560 (test compound 5%) came to 1.671.
